Literature values, collected in patent US8440442B2, “Method of assaying 5-FU” (Myriad Genetics, Inc, priority 2009, dated 2013).

Conditions: patients, 5-FU infusion; cited from earlier work

SMILES: O=c1[nH]cc(F)c(=O)[nH]1 [5-FU, 5-fluorouracil]
- average t1/2: ~13 min
